# Measured values reported in PubChem BioAssay AID264 (DTP/NCI, 2004).
# The list shows only some results of the screen, not a fair sample: it gathers tests that were run many times, whatever their T/C, doses with no T/C, and many T/C values between a quarter and a half above the control. Further doses and runs are listed elsewhere. T/C: endpoint of the treated group in % of that of the vehicle group. Schedule codes are those of the source, read here as Q, the interval in days (D) or hours (H), X, the number of doses. Some T/C values are negative: the treated tumours shrank. Some doses were run more than once; their values stand side by side, smallest first. Some T/C values carry the count of animals alive at the toxicity check (mostly the fifth day); where none is given, no animal had died by that day. Some doses have a count of surviving animals in place of a T/C: the source holds a T/C of zero for them, seemingly a mark for toxic or unscored doses. Survivors were counted at the toxicity check, usually on the fifth day, unless a day is given; later deaths do not show. Peptide text beside a SMILES is read from it. * marks the point of attachment. Trt = c1ccc(C(c2ccccc2)(c2ccccc2)*)cc1; Cbz = O=C(OCc1ccccc1)*
# Test system: nude mice, LX-1 lung xenograft intrarenal, tumor weight T/C
# Experiment: NCI In Vivo Anticancer Drug Screen. Data for tumor model Human Lung LX-1 Xenograft (intrarenal inoculation) in NU/NU Swiss (nude) mice
# Settings: T/C endpoint: mean tumor weight change, higher T/C = larger tumour; for T/C: evaluated on day 11
# Outline: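 Antitumor effect is expressed as a ratio: the mean tumor measurement of the drug-treated group relative to that of the vehicle-dosed control group.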
# [1] = dose: 10.0 mg/kg/injection, schedule: Q04DX003 (sc), vehicle: Klucel (hydroxypropylcellulose) (HPC)
# [2] = dose: 20.0 mg/kg/injection, schedule: Q01DX010 (sc), vehicle: saline with Tween-80
# [3] = dose: 150.0 mg/kg/injection, schedule: Q04DX003 (sc), vehicle: Klucel (hydroxypropylcellulose) (HPC)
compound,measurement,setting,value
CNNCc1ccc(C(=O)NC(C)C)cc1,T/C,"dose: 100.0 mg/kg/injection, schedule: Q01DX010 (sc), vehicle: saline","-73, 1, 3, 6, 23 % of control"
same,T/C,"dose: 200.0 mg/kg/injection, schedule: Q01DX010 (sc), vehicle: saline","-44, -34, -9, 5, 21 % of control"
same,T/C,"dose: 400.0 mg/kg/injection, schedule: Q01DX010 (sc), vehicle: saline","-86, -31 [2 of 3 alive on day 11], 2 [2 of 3 alive on day 11], 4 [2 of 3 alive on day 11], 12 % of control [2 of 3 alive on day 11]"
same,survivor count,"dose: 800.0 mg/kg/injection, schedule: Q01DX010 (sc), vehicle: saline",0 of 3 on day 11
same,survivor count,"dose: 1333.3 mg/kg/injection, schedule: Q04DX003 (ip), vehicle: saline",0 of 3 on day 11
CC[PH+](CC)CC[S-].CC[PH+](CC)CC[S-].[Au+].[Au+],T/C,"dose: 20.0 mg/kg/injection, schedule: Q04DX003 (sc), vehicle: Klucel (hydroxypropylcellulose) (HPC)",142 % of control
CCOC(=O)C(CC(C)C)NC(=O)C(N)Cc1ccc(N(CCCl)CCCl)cc1 (configuration not stated),survivor count,"dose: 60.0 mg/kg/injection, schedule: Q04DX003 (sc), vehicle: water",3 of 6 on day 11
same,survivor count,"dose: 120.0 mg/kg/injection, schedule: Q04DX003 (sc), vehicle: water",0 of 6 on day 11
O=C(O)CC(NC(=O)CP(=O)(O)O)C(=O)O.[NH-]C1CCCCC1[NH-].[Pt+2] (configuration not stated),survivor count,"dose: 50.0 mg/kg/injection, schedule: Q04DX003 (sc), vehicle: dextrose",3 of 6 on day 11
COC(=Nc1ccccc1)SSC(C)C,survivor count,"dose: 2400.0 mg/kg/injection, schedule: Q04DX003 (sc), vehicle: saline with Tween-80",3 of 6 on day 11
Cc1ncc([N+](=O)[O-])n1CCSC(N)=O,survivor count,"dose: 100.0 mg/kg/injection, schedule: Q01DX010 (sc), vehicle: saline with Tween-80",1 of 3 on day 11
same,survivor count,"dose: 200.0 mg/kg/injection, schedule: Q01DX010 (sc), vehicle: saline with Tween-80",0 of 3 on day 11
same,survivor count,"dose: 400.0 mg/kg/injection, schedule: Q01DX010 (sc), vehicle: saline with Tween-80",0 of 3 on day 11
C[C@@]12C(=O)OC(=O)[C@]1(C)[C@H]1CC[C@@H]2O1,T/C,"dose: 5.0 mg/kg/injection, schedule: Q04DX003 (sc), vehicle: Klucel (hydroxypropylcellulose) (HPC)",127 % of control [5 of 6 alive on day 11]
same,survivor count,[1],2 of 6 on day 11
CN(CCN(C)C(=O)CCOS(C)(=O)=O)C(=O)CCOS(C)(=O)=O,survivor count,"dose: 600.0 mg/kg/injection, schedule: Q04DX003 (sc), vehicle: saline",2 of 6 on day 11
same,survivor count,"dose: 1200.0 mg/kg/injection, schedule: Q04DX003 (sc), vehicle: saline",0 of 6 on day 11
CCC1OCC(C(Cl)CCl)O1 (configuration not stated),survivor count,"dose: 2400.0 mg/kg/injection, schedule: Q04DX003 (sc), vehicle: Klucel (hydroxypropylcellulose) (HPC)",0 of 6 on day 11
O=C1C=C[C@H](O)[C@@]2(CO)O[C@@H]12,T/C,"dose: 3.12 mg/kg/injection, schedule: Q04DX003 (sc), vehicle: saline with Tween-80",132 % of control
same,survivor count,"dose: 25.0 mg/kg/injection, schedule: Q04DX003 (sc), vehicle: saline with Tween-80",0 of 6 on day 11
CCN(C)N=Nc1ccc(C(N)=O)cc1,survivor count,"dose: 200.0 mg/kg/injection, schedule: Q01DX010 (sc), vehicle: Klucel (hydroxypropylcellulose) (HPC)",0 of 3 on day 11
same,survivor count,"dose: 400.0 mg/kg/injection, schedule: Q01DX010 (sc), vehicle: Klucel (hydroxypropylcellulose) (HPC)",0 of 3 on day 11
O=C1CN(CN2CCOCC2)C(=O)CN1CN1CCOCC1,T/C,"dose: 25.0 mg/kg/injection, schedule: Q01DX010 (sc), vehicle: suspension in saline",140 % of control
same,T/C,"dose: 100.0 mg/kg/injection, schedule: Q01DX010 (sc), vehicle: suspension in saline",126 % of control
CCN(CC)CC[n+]1ccc2c(C)c3[nH]c4ccc(O)cc4c3c(C)c2c1,T/C,"dose: 12.5 mg/kg/injection, schedule: Q04DX003 (sc), vehicle: suspension in saline",139 % of control
same,survivor count,"dose: 100.0 mg/kg/injection, schedule: Q04DX003 (sc), vehicle: suspension in saline",3 of 6 on day 11
CC1OC(=O)C(C(C)C)NC(=O)C(C(C)C)OC(=O)C(C(C)C)NC(=O)C(C)OC(=O)C(C(C)C)NC(=O)C(C(C)C)OC(=O)C(C(C)C)NC(=O)C(C)OC(=O)C(C(C)C)NC(=O)C(C(C)C)OC(=O)C(C(C)C)NC1=O (configuration not stated),T/C,"dose: 5.0 mg/kg/injection, schedule: Q01DX010 (sc), vehicle: saline with Tween-80",125 % of control
same,survivor count,"dose: 20.0 mg/kg/injection, schedule: Q01DX010 (ip), vehicle: saline with Tween-80",0 of 3 on day 11
same,T/C,[2],128 % of control [2 of 3 alive on day 11]
same,survivor count,[2],1 of 3 on day 11
same,survivor count,"dose: 33.33 mg/kg/injection, schedule: Q04DX003 (ip), vehicle: saline with Tween-80",1 of 3 on day 11
same,survivor count,"dose: 40.0 mg/kg/injection, schedule: Q01DX010 (ip), vehicle: saline with Tween-80",0 of 3 on day 11
same,survivor count,"dose: 40.0 mg/kg/injection, schedule: Q01DX010 (sc), vehicle: saline with Tween-80",0 of 3 on day 11 and 1 of 3 on day 11
same,survivor count,"dose: 133.3 mg/kg/injection, schedule: Q04DX003 (ip), vehicle: saline with Tween-80",0 of 3 on day 11
same,survivor count,"dose: 133.3 mg/kg/injection, schedule: Q04DX003 (sc), vehicle: saline with Tween-80",0 of 3 on day 11
CCC[CH2][Hg][Cl],survivor count,"dose: 75.0 mg/kg/injection, schedule: Q04DX003 (sc), vehicle: Klucel (hydroxypropylcellulose) (HPC)",2 of 6 on day 11
same,survivor count,[3],1 of 6 on day 11
CCCCCCCCCCS(=O)CC(CO)NC(=O)/C=C/c1c(C)[nH]c(=O)[nH]c1=O (configuration not stated),survivor count,"dose: 37.5 mg/kg/injection, schedule: Q04DX003 (sc), vehicle: distilled water + Tween-80",2 of 6 on day 11
same,survivor count,"dose: 75.0 mg/kg/injection, schedule: Q04DX003 (sc), vehicle: distilled water + Tween-80",0 of 6 on day 11
C=CS(C=C)=NS(=O)(=O)c1ccc(C)cc1,survivor count,[3],0 of 6 on day 11
COC1C(C)OC(OC2CC(C)(O)Cc3cc4c(c(O)c32)C(=O)c2c(O)cc3c(c2C4=O)OC2OC3(C)C(O)C(N(C)C)C2O)C(OC)C1(C)OC (configuration not stated),T/C,[1],130 % of control
C=CC(=O)N1CN(C(=O)C=C)CN(C(=O)C=C)C1,survivor count,"dose: 50.0 mg/kg/injection, schedule: Q01DX010 (sc), vehicle: saline with Tween-80",0 of 3 on day 11
CCc1ncnc2cc(OCC3CO3)c(OC)cc12 (configuration not stated),survivor count,"dose: 200.0 mg/kg/injection, schedule: Q04DX003 (sc), vehicle: suspension in saline",2 of 6 on day 11
same,survivor count,"dose: 400.0 mg/kg/injection, schedule: Q04DX003 (sc), vehicle: suspension in saline",0 of 6 on day 11
CC(C)CCCCCCCCCCCCC(=O)NCC(=O)NC1C(C)OC(Nc2ncnc3nc[nH]c23)C(O)C1O (configuration not stated),survivor count,"dose: 16.0 mg/kg/injection, schedule: Q01DX010 (sc), vehicle: distilled water + Tween-80",2 of 6 on day 11 and 3 of 6 on day 11
same,survivor count,"dose: 32.0 mg/kg/injection, schedule: Q01DX010 (sc), vehicle: distilled water + Tween-80",2 of 6 on day 11
COC(=O)C(CSC(c1ccccc1)(c1ccccc1)c1ccccc1)NC(=O)C(CC(N)=O)NC(=O)OCc1ccccc1 (stereo not drawn) (Cbz-Asn-Cys(Trt)-OMe; configuration not given here),T/C,"dose: 600.0 mg/kg/injection, schedule: Q04DX003 (sc), vehicle: distilled water + Tween-80",132 % of control
COc1ccc(C(=O)C(CN(C)C)CN(C)C)cc1,survivor count,"dose: 100.0 mg/kg/injection, schedule: Q04DX003 (sc), vehicle: saline",0 of 6 on day 11
N/C(=N\OC(=O)Nc1ccc(CSc2ccc(Cl)cc2)o1)c1ccccn1,survivor count,"dose: 600.0 mg/kg/injection, schedule: Q04DX003 (sc), vehicle: Klucel (hydroxypropylcellulose) (HPC)",1 of 6 on day 11
O=C/C(Cl)=C(/Cl)C(=O)O,survivor count,"dose: 80.0 mg/kg/injection, schedule: Q01DX010 (sc), vehicle: saline with Tween-80",0 of 3 on day 11
same,survivor count,"dose: 160.0 mg/kg/injection, schedule: Q01DX010 (sc), vehicle: saline with Tween-80",0 of 3 on day 11
CC1(C)OC(=O)N(CO)C1=O,T/C,"dose: 50.0 mg/kg/injection, schedule: Q01DX010 (sc), vehicle: saline",134 % of control
